Construct, isoform or probe ends are uncertain for at least one entry. The comparison behind a weaker result is the experiment's own reference, which may not be listed here. Where a protein sequence is shown, tags need not be part of it.

This data set addresses T1, OSBZ8 (UniProt Q40645).
T1 sequence (looked up, limits assumed): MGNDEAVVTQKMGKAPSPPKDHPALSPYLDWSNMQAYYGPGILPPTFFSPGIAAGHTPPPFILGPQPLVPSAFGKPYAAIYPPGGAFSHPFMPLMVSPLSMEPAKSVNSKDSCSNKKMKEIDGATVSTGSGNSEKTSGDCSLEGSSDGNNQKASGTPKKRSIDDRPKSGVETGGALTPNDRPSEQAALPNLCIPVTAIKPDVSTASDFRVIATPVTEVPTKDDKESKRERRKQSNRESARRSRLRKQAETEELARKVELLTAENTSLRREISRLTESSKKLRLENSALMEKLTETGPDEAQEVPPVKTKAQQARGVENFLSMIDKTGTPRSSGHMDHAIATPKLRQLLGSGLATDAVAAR
Nature of the data set: EMSA. Conditions: Chemiluminescent Nucleic Acid Detection Module Kit (Thermo) per manufacturer; binding buffer, pH and temperature not stated; recombinant protein; protein details: His (pCold vector); label: biotin.
For “AATAAAAATGGTGGGACCCACGTGGGCCCCACAAGTCATTCT (double strand) [Probe 11]”, the binding result is “binds more weakly”.
Consider “AGGAAAAATGGTGGGACCCACGTGGGCCCCACATGTCATCCT (double strand) [Probe 14]”, for which the binding result is listed as “binds more weakly”.
Take “AGTCAAATTAGCCACGTAGGCGACACGTCAGCTAAAACCGC (double strand) [Probe 12]”: the binding result was “binds more weakly”.
Consider “TCTTCATCTGACGTGGCATTGATGTGGTGCTTACGTGGCACTTCGA (double strand) [Probe 10]”, for which the binding result is given as “binds more weakly”.
Regarding “TGTGGTTTTGGCTGACGTGGCGCCTACGTGGCGAATTTGACTC (double strand) [Probe 9]”, the binding result is reported as “binds more weakly”.

Values taken from publication PMC7516004, “RICE CENTRORADIALIS 1, a TFL1-like Gene, Responses to Drought Stress and Regulates Rice Flowering Transition”.
